# In all, about 1,000 compounds were measured (“thermal shift dTm”: median about 0.19, highest 2% from about 1.7 on). This is one part of the list. Activity calls are given as the source filed them.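 Rule for the calls: active = mean rise in melting temperature of at least 1 degC over same-plate control wells; inactive = below that, where a call was filed.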
# The chains behind the UniProt entries cited, without tags or fusion partners. Where a name states a change or a piece, a line headed by the entry shows the natural chain unless it says otherwise.
# UniProt O00391: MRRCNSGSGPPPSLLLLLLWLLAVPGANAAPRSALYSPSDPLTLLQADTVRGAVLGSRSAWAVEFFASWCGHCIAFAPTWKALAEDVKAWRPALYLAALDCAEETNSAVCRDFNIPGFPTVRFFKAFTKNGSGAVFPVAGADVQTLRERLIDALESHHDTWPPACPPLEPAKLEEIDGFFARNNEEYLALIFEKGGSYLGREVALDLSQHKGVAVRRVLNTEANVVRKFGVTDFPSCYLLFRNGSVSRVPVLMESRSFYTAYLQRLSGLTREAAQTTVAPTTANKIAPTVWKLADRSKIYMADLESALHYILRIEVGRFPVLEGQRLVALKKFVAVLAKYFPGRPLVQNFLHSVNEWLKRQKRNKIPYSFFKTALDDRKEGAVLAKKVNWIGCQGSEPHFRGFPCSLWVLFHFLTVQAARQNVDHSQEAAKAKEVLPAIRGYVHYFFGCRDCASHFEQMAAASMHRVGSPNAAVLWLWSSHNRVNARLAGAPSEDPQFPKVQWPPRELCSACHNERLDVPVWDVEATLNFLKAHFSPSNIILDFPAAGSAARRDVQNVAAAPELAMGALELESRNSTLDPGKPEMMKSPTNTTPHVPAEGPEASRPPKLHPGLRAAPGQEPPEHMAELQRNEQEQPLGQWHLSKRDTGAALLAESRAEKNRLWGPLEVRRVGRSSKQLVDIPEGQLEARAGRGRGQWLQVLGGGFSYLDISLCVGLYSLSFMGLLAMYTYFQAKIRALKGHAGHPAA
# Target: Sulfhydryl oxidase 1 (Homo sapiens) (UniProt O00391)
# Experiment: ligand-induced melting shift of human QSOX1 – biophysical, protein thermal shift, single concentration, QSOX1 inhibitor project, confirmation (AID 1347422);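 note: dTm is compound Tm minus mean Tm of DMSO-only wells on that plate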
# Conditions: recombinant hQSOX1 thermal shift, Sypro Orange, at 25 µM, stronger effect = higher value
row,SMILES,thermal shift dTm
1,COCc1cc(=O)c2c(=O)n(-c3ccccc3)[nH]c2[nH]1,0.61 °C
2,CCOC(=O)C(C(=O)Nc1ccc(Cl)c(Cl)c1)C1CCCCC1 (stereo not drawn),0.02 °C
3,O=C(NC1CC(=O)N(Cc2cccc3ccccc23)C1)C(=O)c1ccccc1 (stereo not drawn),0.23 °C
4,O=S(=O)(Nc1ccc2c(c1)OCCO2)c1ccc(OC(F)(F)F)cc1,0.37 °C
5,CC(=O)Nc1cccc(-c2csc(Nc3ccc(C)cn3)n2)c1,active: 1.21 °C
6,Cc1ccc(S(=O)(=O)Nc2ccc(C(=O)Nc3ccc4c(c3)OCO4)cc2)cc1,active: 1.03 °C
7,COc1ccc(Cl)cc1S(=O)(=O)Nc1cccc(O)c1,0.23 °C
8,O=C(Nc1ccc(S(=O)(=O)N2CCCC2)cc1)c1ccc2c(c1)OCO2,active: 1.04 °C
9,CC(NS(=O)(=O)c1ccc(Cl)cc1)C1C2CC3CC(C2)CC1C3 (stereo not drawn),0.05 °C
10,CCOc1cccc(C(=O)Nc2ccc(F)c(F)c2)c1,active: 1.44 °C
11,COc1ccc(NC(=O)Nc2cccc(Cl)c2)cn1,active: 1.02 °C
12,CC(=O)N1CCN(c2ncccc2CNC(=O)Nc2cccc(F)c2)CC1,0.85 °C
13,COc1ccc(/C=C/C=C2\N=C(SCc3ccccc3)SC2=O)cc1,0.63 °C
14,Cc1[nH]nc(-c2ccc(O)cc2O)c1Oc1ccccc1F,0.2 °C
15,C=CCN1C(=O)C(c2c(C)[nH]c3ccccc23)(c2c(C)[nH]c3ccccc23)c2ccccc21,active: 1.05 °C
16,O=C(CCC(=O)OCc1ccc(Br)cc1)Nc1cc(C(F)(F)F)ccc1Cl,0.17 °C
17,COc1ccc(OCCOCCOc2ccc(C(C)(C)C)cc2)cc1,0.11 °C
18,N#Cc1cccc(-c2nc3c(cnn3CC3CC=CCC3)[nH]2)c1 (stereo not drawn),0.14 °C
19,Cc1ccccc1NC(=O)Nc1nnc(C23CC4CC(CC(C4)C2)C3)s1,0.2 °C
20,COc1cccc(NC(=O)Nc2cc(C)ccc2F)c1,0 °C
21,CC(NC(=S)NCc1ccccc1)C12CC3CC(CC(C3)C1)C2 (stereo not drawn),0.45 °C
22,Cc1ccc2[nH]cc(CCNC(=O)c3ccccc3Cl)c2c1,inactive: -0.13 °C

row,SMILES,thermal shift dTm
1,COc1cc(S(=O)(=O)NC(c2ccccc2)c2ccccc2)ccc1F,0.07 °C
2,CCC(=O)Nc1ccc(OC(=O)c2ccccc2Cl)cc1,0.25 °C
3,Cc1ccc(C(=O)Nc2nc(-c3ccccc3)c(C)s2)s1,0.01 °C
4,O=C(CCC1CCCN(C(=O)CCN2CCCO2)C1)N1CCN(Cc2ccccc2)CC1 (stereo not drawn),0.04 °C
5,CCCC(=O)Nc1cccc(NC(=O)/C=C/c2ccc(Cl)cc2)c1,inactive: -31.6 °C
6,C=CCSc1nc(-c2ccccc2)ccc1C#N,inactive: -0.17 °C
7,CCC(c1ccc(OC)cc1)N(CC)C(=O)Nc1ccccc1 (stereo not drawn),0.14 °C
8,Cc1cccc(/C=C/c2ccc3cccc(O)c3n2)c1O,0.57 °C
9,NC(=O)c1ccnc(-c2ccc(Cl)s2)c1,0.04 °C
10,CC(=O)N1CCN(Cc2cc(C(C)(C)C)c(O)c(C(C)(C)C)c2)CC1,active: 1.26 °C
11,O=C(NCC1Cc2cccc(-c3cnccn3)c2O1)c1cncs1 (stereo not drawn),0.09 °C
12,COc1ccc(OCC(=O)Nc2cc(Cl)ccc2O)cc1,0.02 °C
13,Cc1ccc(Nc2nc(C3CC(CC(C)C)C(=O)O3)cs2)cc1 (stereo not drawn),inactive: -0.09 °C
14,O=C(CSC1=NCCS1)Nc1ccc2ccccc2c1,0.14 °C
15,O=C(/C=C/c1ccc(Cl)cc1)Nc1cccnc1,active: 2.02 °C
16,O=C1OC(c2ccccc2)OC(=O)C1=Cc1ccc(-c2cccc(C(F)(F)F)c2)o1 (stereo not drawn),active: 1.07 °C
17,CCNS(=O)(=O)c1ccc(NC(=O)Nc2cc(C)ccc2OC)cc1,active: 1.17 °C
18,Cc1cc(Nc2ccc(S(=O)(=O)NCc3ccccc3)cc2)ncn1,0.04 °C
19,COCCCNC(=O)c1ccc(NC(=O)c2ccc(OC)cc2)cc1,0.38 °C
20,O=C(Nc1ccc2c(c1)OCO2)c1sc2cccc(F)c2c1Cl,0.29 °C
21,Cc1ncc(CNc2ccc(-c3nc4ccccc4[nH]3)cc2)cn1,0.14 °C
22,O=C(c1ccncc1)c1ccc(NC(=O)c2cccs2)cc1,0.05 °C

row,SMILES,thermal shift dTm
1,Cc1ccc(NS(=O)(=O)c2cc(C(=O)Nc3ccc4c(c3)OCO4)ccc2C)cc1,0.66 °C
2,CCCOC(=O)c1c(NC(=O)C2CCCCC2C(=O)O)sc(C)c1-c1ccc(F)cc1 (stereo not drawn),0.06 °C
3,COc1ccc(C(=O)Oc2ccccc2Cl)cc1Br,0.06 °C
4,CCc1cccc2c1N=C/C2=C\c1c(O)n(Cc2ccco2)c(=O)[nH]c1=O,0.91 °C
5,CC(C)c1ccc(NC(=S)Nc2ccccc2Oc2ccccc2)cc1,0.11 °C
6,O=C(Nc1ccccc1)OCC1COc2ccccc2O1 (stereo not drawn),inactive: -0.05 °C
7,Cc1ccc(Nc2nc(-c3sc(C)nc3C)cs2)nc1,0.16 °C
8,Cc1cccc(OCC(=O)Nc2cccc(NC(=O)c3ccco3)c2)c1C,0.85 °C
9,COc1ccc(NC(=O)CSc2nnc(-c3ccc4ccccc4n3)s2)cc1,inactive: -0.09 °C
10,CC(=O)Nc1cccc(NC(=O)c2cc(Br)cs2)c1,0.83 °C
11,Cc1ccc(-c2noc(CNC(=O)c3ccc4ccccc4c3)n2)cc1,inactive: -0.08 °C
12,CC(C)N1CC(C(=O)Nc2ccc(C(=O)Nc3ccc(Cl)cn3)cc2)CC1=O (stereo not drawn),0.14 °C
13,O=C(Nc1ccc2[nH]ncc2c1)c1cccc(F)c1,active: 1.63 °C
14,CN(C)c1nc(N/N=C/c2cc(Br)c(O)c(Br)c2O)nc(Nc2ccc(F)cc2)n1,0.1 °C
15,C=CCN1C(=O)C(Cc2ccc(F)cc2)S/C1=N\N=C\c1ccccc1 (stereo not drawn),0.01 °C
16,O=C(c1cccc(NS(=O)(=O)c2ccccc2)c1)N1CCc2ccccc21,0.23 °C
17,CCOc1c(Cl)cc(-c2nc3ccc(Br)cc3c(=O)o2)cc1Cl,active: 1.55 °C
18,OCc1cn(-c2ccccc2)nc1-c1ccc2ccccc2c1,inactive: -0.09 °C
19,Cc1cc(-c2noc(COc3ccccc3)n2)c2ccccc2n1,0.15 °C
20,Cc1nc(NC(=O)c2ccc(Br)s2)sc1C,0.27 °C
21,CC1CN(CC(=O)NCc2ccc(-n3cccn3)cc2)Cc2cc(Cl)ccc2O1 (stereo not drawn),0.09 °C
22,Cc1oc(-c2ccccc2NS(C)(=O)=O)nc1CN(C)Cc1ccc(OC(F)F)cc1,0.18 °C

row,SMILES,thermal shift dTm
1,COc1cc(/C=C2/SC(N)=NC2=O)ccc1OCc1ccc(I)cc1,0.05 °C
2,CC(=O)c1ccc(NC(=O)Nc2ccc(Cl)cn2)cc1,0.1 °C
3,Cc1ccc(C2(c3ccc(C)cc3)CC2C(=O)Nc2ccccc2)cc1 (stereo not drawn),0.05 °C
4,COc1cc(NC(=O)CSc2ccc(Cl)cc2)ccc1NC(=O)c1ccco1,active: 1.17 °C
5,NS(=O)(=O)c1ccc(C(=O)OCc2cccc(Cl)c2Cl)cc1,0.16 °C
6,CCOC(=O)c1sc(NC(=O)CSc2nc(SC)ns2)nc1C,0.19 °C
7,COc1ccc(C)cc1NS(=O)(=O)c1ccc(NC(=O)c2ccc(C)cc2)cc1,inactive: -0.08 °C
8,FC(F)(F)c1ccccc1NC(=S)Nc1ccc(OCc2ccccc2)cc1,0.68 °C
9,Cn1c(=O)c(C(=O)Nc2cccc(O)c2)c(O)c2ccccc21,0.05 °C
10,CCCNC(=O)c1ccc(-c2cccc(-c3ccn[nH]3)c2)nc1,inactive: 0 °C
11,O=C(CNC(=O)c1ccc(Cl)cc1)OCc1ccc(Br)cc1,0.63 °C
12,Cc1ccc(S(=O)(=O)Nc2ccc(-c3cn4ccc(C)cc4n3)cc2)cc1,0.71 °C
13,CCC(=S)/C=C1\Sc2ccc(Cl)cc2N1CCCS(=O)(=O)O,0.95 °C
14,C/C(CCc1ccc2c(c1)OCO2)=N\N=C(/N)SC1CC(=O)N(c2ccc(Cl)cc2)C1=O (stereo not drawn),inactive: -0.09 °C
15,O=c1[nH]c(SCCOc2cccc3ccccc23)nc2ccccc12,0.11 °C
16,O=C(C#Cc1ccccc1)Nc1ccc2c(c1)OCCO2,0.24 °C
17,Cc1ccc(-c2cn(S(=O)(=O)c3cccc4nsnc34)nc2N)cc1,0.1 °C
18,Cc1ccc(-c2noc(CNC(=O)c3ccc(C(C)(C)C)cc3)n2)cc1,inactive: -0.13 °C
19,O=C(O)CCCNC(=O)/C(=C\c1ccc(F)cc1)NC(=O)c1ccco1,inactive: -0.09 °C
20,COc1ccc(NC(=O)Nc2ccc(C)cc2)c(OC)c1,0.2 °C
21,COc1ccc2c(CCNC(=O)c3cccc(C)c3)c[nH]c2c1,0.06 °C
22,O=C(Nc1ccc(Cl)cc1C(=O)O)c1ccccc1,0.52 °C

row,SMILES,thermal shift dTm
1,Cc1ccc(C)c(-c2csc(NC(=O)c3ccncc3)c2C#N)c1,0.88 °C
2,O=C(Nc1ncc(Cc2ccccc2)s1)c1cccc(-n2cnnn2)c1,0.18 °C
3,CCOc1cccc(/C=C2\N=C(SCc3ccccc3)SC2=O)c1OC,0.4 °C
4,O=C(Cc1cccs1)Nc1cccc(NC(=O)c2ccco2)c1,0.23 °C
5,N#Cc1ccccc1COc1ccc(C(=S)N2CCCC2)cc1Cl,0.24 °C
6,Cc1ccc2nc(-c3ccc(NC(=O)Cc4ccc(F)cc4)cc3)sc2c1,0.06 °C
7,CCC(Oc1ccccc1)C(=O)NC(c1ccccc1)c1ccc(OC)cc1 (stereo not drawn),0.11 °C
8,COc1ccc(NC(=O)Nc2ccc(OC(F)(F)F)cc2)c(OC)c1,0.8 °C
9,Cc1ccc(NC(=O)NCc2nc(-c3ccccc3Cl)no2)cc1,0.2 °C
10,O=c1c2c3nc4ccccc4nc3n(C3CCCC3)c2ncn1Cc1ccco1,0.71 °C
11,O=C(CC1SC(=O)NC1=O)Nc1ccccc1NC(=O)CC1SC(=O)NC1=O (stereo not drawn),0.86 °C
12,CCOc1cc(S(=O)(=O)NC(C)c2ccccc2)ccc1Br (stereo not drawn),inactive: -22.5 °C
13,CCc1c(C(=O)Nc2ccc3[nH]ncc3c2)csc1C,0.29 °C
14,CCC(=O)Oc1ccc(/C=C/c2ccc3ccccc3n2)cc1,0.11 °C
15,Cc1ccc(S(=O)(=O)Nc2ccc(C(=O)Nc3cccnc3)cc2)cc1,0.23 °C
16,O=C(CCc1ccccc1)Nc1cccc(-c2nc3ccccc3s2)c1,0.59 °C
17,O=C(Nc1cccc(OCC2CCCO2)c1)c1cccs1 (stereo not drawn),0.09 °C
18,OCc1cn(-c2ccccc2)nc1-c1cccc(Br)c1,inactive: -0.13 °C
19,CCC(=O)Oc1ccc(-c2nc3cc(Cl)ccc3c(=O)o2)cc1,active: 1.23 °C
20,NC(=O)c1cn(-c2ccccc2)nc1-c1ccc(-c2ccccc2)cc1,0.07 °C

# Exported bar-delimited: part of the list above
row | SMILES | thermal shift dTm
2 | CCOC(=O)C(C(=O)Nc1ccc(Cl)c(Cl)c1)C1CCCCC1 (stereo not drawn) | 0.02 °C
2 | CCC(=O)Nc1ccc(OC(=O)c2ccccc2Cl)cc1 | 0.25 °C
13 | Cc1ccc(Nc2nc(C3CC(CC(C)C)C(=O)O3)cs2)cc1 (stereo not drawn) | inactive: -0.09 °C
20 | O=C(Nc1ccc2c(c1)OCO2)c1sc2cccc(F)c2c1Cl | 0.29 °C
20 | COc1ccc(NC(=O)Nc2ccc(C)cc2)c(OC)c1 | 0.2 °C
16 | O=C(CCc1ccccc1)Nc1cccc(-c2nc3ccccc3s2)c1 | 0.59 °C

# Reference: PubChem BioAssay AID1347422 (Sanford-Burnham Center for Chemical Genomics, 2020)
